Laboratory results: patent US8883748B2, “Formulation for treating fungal infection” (Lifecare Innovations Pvt. Ltd., priority 2009, dated 2014)
At least one structure is not confirmed: it was looked up by name or label, or the drawing left a doubt.

Tested on: Fusarium spp.
Assay: In-vitro antifungal spectrum and MIC, clinical isolates
Assay type: cell-based
Experimental: The experiments were carried out to determine antifungal spectrum and MIC of Nanosomal Amphotericin B vis-à-vis commonly used antifungals viz.
Amphotericin B, Voriconazole, Itraconazole and Fluconazole to ascertain efficacy against pathogenic yeasts and moulds including dermatophytes.

**Q.** With `CCC(C)n1ncn(-c2ccc(N3CCN(c4ccc(OCC5COC(Cn6cncn6)(c6ccc(Cl)cc6Cl)O5)cc4)CC3)cc2)c1=O` (stereo not shown) [Itraconazole] as the compound, how does the Susceptibility category read?
**A.** Resistant
